# Data reported in publication PMC7819943, “Rice protein-binding microarrays: a tool to detect cis-acting elements near promoter regions in rice”.
# Amino acid sequences for entries named in this document (tags omitted).
# UniProt Q0JBA9, entry or part of it: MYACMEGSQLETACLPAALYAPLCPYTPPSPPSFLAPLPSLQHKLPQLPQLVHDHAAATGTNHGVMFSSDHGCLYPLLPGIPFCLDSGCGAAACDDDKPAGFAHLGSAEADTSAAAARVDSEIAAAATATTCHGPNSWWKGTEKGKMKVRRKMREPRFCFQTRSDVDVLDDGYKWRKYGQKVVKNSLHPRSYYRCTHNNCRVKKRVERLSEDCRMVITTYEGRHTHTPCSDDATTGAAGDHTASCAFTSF
# This is one part of the list.
# Molecular target: OsWRKY34 (Oryza sativa, UniProt Q0JBA9 1-250)
# Assay: protein-binding microarray (RPBM); PBS, 2% BSA, 51.3 ng/ul salmon testes DNA, 50 uM zinc acetate, 200 nM TF, 25 C, 1 h; high values mean tight binding
# Conditions: protein: recombinant; tags: N-terminal polyhistidine and DsRed monomer fusion (pET32a); label: CyDye5-dUTP incorporated in the synthesized complementary strand; 3' TTTTT single-stranded linker to array surface; dsDNA, one strand shown
# How it was run: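 Polyhistidine-tagged DsRed fusions of transcription factors, joined at the N-terminus, were expressed in E. coli BL21-CodonPlus and isolated on Ni–NTA. They were incubated at 200 nM for 1 h at 25 °C on a custom Agilent array, double-stranded and BSA-blocked, in PBS with 2% BSA, salmon testes DNA and 50 µM zinc acetate. The binding signal is per-feature fluorescence intensity (arbitrary units) read on an Axon 4000B scanner after washing.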
row,Sequence,binding signal
1,TTTTTCATCCGACAATTGAAAAGGGCTATAATTTCTTTTTCGGAGTCACCTAGTGCAG,8590 fluorescence intensity (a.u.)
2,TCTAATGATCAACTCATCTACTGCTAGTTTTGTTAAACCCCGGAGTCACCTAGTGCAG,9010 fluorescence intensity (a.u.)
3,TGGGTATTGGGTATTATATTGCGAGAGATAGAGAGAGATGCGGAGTCACCTAGTGCAG,10300 fluorescence intensity (a.u.)
4,CGCCACAGCTCGTAATGTACAGCACCGATCACACCGATACCGGAGTCACCTAGTGCAG,8520 fluorescence intensity (a.u.)
5,TTTCGTGTACCCACATGCCTAGCTATCTCGTATGCACATCCGGAGTCACCTAGTGCAG,9830 fluorescence intensity (a.u.)
6,CGGATGCTCTCGTTTCTCCAGCGTCAATCGCGCCCGCTTACGGAGTCACCTAGTGCAG,9490 fluorescence intensity (a.u.)
7,TGGATGTGGTTTTAATTTGGTTTTAATATTCTTTTTAGACCGGAGTCACCTAGTGCAG,11700 fluorescence intensity (a.u.)
8,GTTGTTTAGTAAGTCTAATGGGTCATTTGCATTGTATAGTCGGAGTCACCTAGTGCAG,9620 fluorescence intensity (a.u.)
9,ATTCTCAAGTTTGAATTGGGTGTATTGGGTTGGGCTAAATCGGAGTCACCTAGTGCAG,16700 fluorescence intensity (a.u.)
10,AGGAGTGTCTGGTTGGTTTCCGGGGTGTGTTGGGTGACTCCGGAGTCACCTAGTGCAG,29500 fluorescence intensity (a.u.)
11,ACGACGAGCTCCATGGTCTCCGCGCGGCGCGCGCTCCTTCCGGAGTCACCTAGTGCAG,12100 fluorescence intensity (a.u.)
12,GAGATTAGTGGTGTGGTTTTCTTATCGATTTGTGCATTGGCGGAGTCACCTAGTGCAG,8990 fluorescence intensity (a.u.)
13,GTCCGTCTACACCTATCTGGGTCTGAAAGAGTCGACGACACGGAGTCACCTAGTGCAG,9150 fluorescence intensity (a.u.)
14,GCCGACCCGATCCCACCCGAGTCCTTCCCTGTGCGCGCACCGGAGTCACCTAGTGCAG,9510 fluorescence intensity (a.u.)
15,ATCTGAACAACCCCTATATCTCGATTGCCCATTGAATTTCCGGAGTCACCTAGTGCAG,8160 fluorescence intensity (a.u.)
16,CAACGTACACTCTATACTATGCCTAGTTTAACAACACAATCGGAGTCACCTAGTGCAG,9010 fluorescence intensity (a.u.)
17,AATTGCCGCACTAACTCCATTGTTCATCTCTAGTTTTACTCGGAGTCACCTAGTGCAG,10300 fluorescence intensity (a.u.)
18,CCTCCACCATTCAATTTTCCCACCTACTTTCACTTATTATCGGAGTCACCTAGTGCAG,13900 fluorescence intensity (a.u.)
19,CCAAATGTGGAGATTTGGGGTGGGCGCGCAAGGTGTTTGACGGAGTCACCTAGTGCAG,8050 fluorescence intensity (a.u.)
20,ATGTCGCCTACCATTATCATCTGGGTTTGGCCTGTTAGTGCGGAGTCACCTAGTGCAG,10000 fluorescence intensity (a.u.)
21,CACAACTCCAGCGACCGCCCACCCGCCATCCTGCCTGCCGCGGAGTCACCTAGTGCAG,8640 fluorescence intensity (a.u.)

row,Sequence,binding signal
1,TCAGCCAAATTCTCTGTACGGCCAGCAGCTGCGCATCTCACGGAGTCACCTAGTGCAG,8440 fluorescence intensity (a.u.)
2,ACCGTGCTGTTGTTACTTGTTCTTGTTCTCACAGTATAAGCGGAGTCACCTAGTGCAG,12400 fluorescence intensity (a.u.)
3,TTAGTACTACTGGTTCTTCTAGTAACAGCATACATTCATTCGGAGTCACCTAGTGCAG,8450 fluorescence intensity (a.u.)
4,TTAAACTGTATACCGTCGCTCGCGTCGCGCGCCGTTGACGCGGAGTCACCTAGTGCAG,9730 fluorescence intensity (a.u.)
5,TGTTTTTCTACTTATTTTCCATCCGCTTGTTCCTAGTTATCGGAGTCACCTAGTGCAG,8030 fluorescence intensity (a.u.)
6,GATCTCCGCCTCCGACTTTGCTTCGATCTAATCTTCTTTCCGGAGTCACCTAGTGCAG,9450 fluorescence intensity (a.u.)
7,GTCGATCGGGAATTTCTGTGACAGTTTTCACCCCTTGAAACGGAGTCACCTAGTGCAG,8190 fluorescence intensity (a.u.)
8,GCCAACAACTCAGTCCCTAACGCCGCCGCCAATCTCGCCGCGGAGTCACCTAGTGCAG,8390 fluorescence intensity (a.u.)
9,TCGCGGCCTCGCGCTCACCGCCGCCGGAATCCGGCTGACCCGGAGTCACCTAGTGCAG,8580 fluorescence intensity (a.u.)
10,GTTTACTTGTACCCACACCCACTGTCTCGTATTCTATTCCCGGAGTCACCTAGTGCAG,11200 fluorescence intensity (a.u.)
11,CTGCTAGAATGTTTGTGGTCTGCCTTGTCCGTCCTTCATTCGGAGTCACCTAGTGCAG,9000 fluorescence intensity (a.u.)
12,ATGAGCCCTTTGATTCTGTCAACCGTGTGCAGCATTGTTTCGGAGTCACCTAGTGCAG,8900 fluorescence intensity (a.u.)
13,AAACGCCCTGACCGACTAACCCTCGCCACCGAGCAAACTCCGGAGTCACCTAGTGCAG,8700 fluorescence intensity (a.u.)
14,ATGCTCATTCCATTATTTTGCATAGGATTTCAATCCTATACGGAGTCACCTAGTGCAG,9850 fluorescence intensity (a.u.)
15,TCCCATTGTAGGGCACGATCTCCGACTCTCCGTCTTCTACCGGAGTCACCTAGTGCAG,14000 fluorescence intensity (a.u.)
16,AAATGCAGTTCCAAACATGGGCTGGGTTACACCAAATCCTCGGAGTCACCTAGTGCAG,8790 fluorescence intensity (a.u.)
17,TTTCTCCTTTTTGAACTTCTCTTTGCACTTAAAGCTTTATCGGAGTCACCTAGTGCAG,11500 fluorescence intensity (a.u.)
18,CTCTTCTTCTTCCACGCGCCAGTCTCCTCCAAACTCGTCGCGGAGTCACCTAGTGCAG,8780 fluorescence intensity (a.u.)
19,ACGTACGAACAAGGCAACAGCACACTCCAGTACTCCACATCGGAGTCACCTAGTGCAG,8990 fluorescence intensity (a.u.)
20,CATCATAGATCGTTCACACGTCTCAACATCCCAAATTATCCGGAGTCACCTAGTGCAG,9520 fluorescence intensity (a.u.)
21,CCTCGCACCTCATGTGTTTGCTGCCTGGAGCAAAGGATTTCGGAGTCACCTAGTGCAG,8900 fluorescence intensity (a.u.)

row,Sequence,binding signal
1,CTCCGTATCTGGTTTTGCGGTTAAGCGACATGAATAAAACCGGAGTCACCTAGTGCAG,9970 fluorescence intensity (a.u.)
2,TAACCGTCAGCCCCGTCCTGTTCCCTAACAAATCCACCACCGGAGTCACCTAGTGCAG,9540 fluorescence intensity (a.u.)
3,CTTTCCTGTACTATTTTACTGTCCGATTTACAACATGTGACGGAGTCACCTAGTGCAG,12900 fluorescence intensity (a.u.)
4,ACCCATATGGACATGCATGTCCATCCTGCCAGGACGCAGACGGAGTCACCTAGTGCAG,8610 fluorescence intensity (a.u.)
5,GTACTCCTATCCTGCTGGATTCACTGACACTAATGACTCGCGGAGTCACCTAGTGCAG,10700 fluorescence intensity (a.u.)
6,TCCCTCGTTTTTCACGTGCACGCTTTTCAAACTGTTAAATCGGAGTCACCTAGTGCAG,9020 fluorescence intensity (a.u.)
7,TCCCCGCGCATGTGAACTCAAACCCATCCGATCGGTTGACCGGAGTCACCTAGTGCAG,12800 fluorescence intensity (a.u.)
8,GGTCCTAATTAATTATTTGCATGCATCCATGCCTTATATTCGGAGTCACCTAGTGCAG,8390 fluorescence intensity (a.u.)
9,GATTCAACATAATATTTTACGAAGTTGTGTTTCGGCGCTTCGGAGTCACCTAGTGCAG,8610 fluorescence intensity (a.u.)
10,GCATTTTATAGTACAGCCAGTTGTTGTTGAGCTTTCAGTCCGGAGTCACCTAGTGCAG,11700 fluorescence intensity (a.u.)
11,CTACCAACCGTGGACTAGTATTACCTGCTGACCAACCGACCGGAGTCACCTAGTGCAG,9740 fluorescence intensity (a.u.)
12,ATGAAAGGTGTACATGATGTGTTCCATATTTCCATGCTGACGGAGTCACCTAGTGCAG,8150 fluorescence intensity (a.u.)
13,TCTGTGGCCAGTTTTCGTCGACATGTTACTCCGCAGAAGTCGGAGTCACCTAGTGCAG,8870 fluorescence intensity (a.u.)
14,CTATTCTTGTGTTTTTTTCTATGTTTAATCCTATGTTTTACGGAGTCACCTAGTGCAG,16600 fluorescence intensity (a.u.)
15,CTCTATTCCCCTTTTCTTTCTTTTGGCGCACTATTCATTGCGGAGTCACCTAGTGCAG,8180 fluorescence intensity (a.u.)
16,TGGGCGGGTGTGTCGGATGTTGACGATGGCGAAGGAGAGGCGGAGTCACCTAGTGCAG,11300 fluorescence intensity (a.u.)
17,ACTCGGCCTTCGTTCAAATTTCAGCCCGTTAGGCTTCGTACGGAGTCACCTAGTGCAG,10400 fluorescence intensity (a.u.)
18,GCTGCCATCACCTATGTAGACCCCTGCCACCAACCGTGCTCGGAGTCACCTAGTGCAG,8140 fluorescence intensity (a.u.)
19,TATATATATATATATATATATATTCACAAATTATTTTTCACGGAGTCACCTAGTGCAG,23500 fluorescence intensity (a.u.)
20,TTTTTGGGTGGGAGTTGTATTTTTTTAACATGTGGGAAAACGGAGTCACCTAGTGCAG,21300 fluorescence intensity (a.u.)
21,CGCCTCGCCACCTCGCTCACTACCTACCTCTCCACCAATGCGGAGTCACCTAGTGCAG,8360 fluorescence intensity (a.u.)

row,Sequence,binding signal
1,CACCGTCTTTTTAAGTTTGTCATTTGATCCATCATTTTTACGGAGTCACCTAGTGCAG,12200 fluorescence intensity (a.u.)
2,GCCTCGATCGCGGCGGTGGCGGTGGGGAGGGGAGCGCACCCGGAGTCACCTAGTGCAG,19000 fluorescence intensity (a.u.)
3,CTAACTTGCAAACTTTGTTGCCTTTATGAATACACATGCTCGGAGTCACCTAGTGCAG,8450 fluorescence intensity (a.u.)
4,GAACTCGAGTAAACCAGCAGCTTCTGTTTCTTGGCCACATCGGAGTCACCTAGTGCAG,10100 fluorescence intensity (a.u.)
5,GAGTATTGTGCGTCCATATCCGCTCCGTTTTCGTCCTATACGGAGTCACCTAGTGCAG,8750 fluorescence intensity (a.u.)
6,GGCCCTGAATCCCCTACAATCTCTGCCTGACATATAGGGACGGAGTCACCTAGTGCAG,8420 fluorescence intensity (a.u.)
7,ATGTCGCTGTGGCTCATCCGGCCCAAGCCCATTTCCCCACCGGAGTCACCTAGTGCAG,8910 fluorescence intensity (a.u.)
8,GGCAAACCACGCGTCTCTCTTTGGTATTCGTCTCTCCATGCGGAGTCACCTAGTGCAG,10600 fluorescence intensity (a.u.)
9,ACCACCACCACCCCACGCGGGATATATATTAATTAATCAACGGAGTCACCTAGTGCAG,10200 fluorescence intensity (a.u.)
10,CGTTCGCTCATCTCATTCGTCGCGGCCCCTCGCCTCTGAACGGAGTCACCTAGTGCAG,15000 fluorescence intensity (a.u.)
11,GGCGTCTCCGCCCGCCGTCTCGTCTCGTTTCTCATCTCAACGGAGTCACCTAGTGCAG,8640 fluorescence intensity (a.u.)
12,CCCCATCCTCCTCTCCTCGCTGCCGTTTGCTTCACTCCCACGGAGTCACCTAGTGCAG,11100 fluorescence intensity (a.u.)
13,GGAGGTGGGGACCGGTGTGGAGAGGAGGATTTTATTTTTTCGGAGTCACCTAGTGCAG,12000 fluorescence intensity (a.u.)
14,ATCCTCCTCCTCCGCTTGGGCCATTTTCGGCCCATTCCTTCGGAGTCACCTAGTGCAG,8770 fluorescence intensity (a.u.)
15,GTTTGATTTTGTGATGCGTCTTCGGTTAGACTTTGAACCTCGGAGTCACCTAGTGCAG,8240 fluorescence intensity (a.u.)
16,ATGTTCCGAACAACGTGTTGTGTATTTTTCCTGTGGTTTTCGGAGTCACCTAGTGCAG,9390 fluorescence intensity (a.u.)
17,CATCTTCCACTCAGTCACTCTCCGTCCTCTCCTGTCGACGCGGAGTCACCTAGTGCAG,11400 fluorescence intensity (a.u.)
18,GCTCGCCACACACCCCAAATCCTCCGCGCGGCCACGCCTACGGAGTCACCTAGTGCAG,8240 fluorescence intensity (a.u.)
19,CTCCTCCGGCCGCCTCCGCCTCCGCCTCCGCTCCCGCCTGCGGAGTCACCTAGTGCAG,10700 fluorescence intensity (a.u.)
20,TTCGGCACCACGATCCACCTCCGGGATTGCCGCCGCGCCACGGAGTCACCTAGTGCAG,8240 fluorescence intensity (a.u.)
21,CCGCCGGACTCTCAAAATCCCAAGTCTCAACTCGATCAGCCGGAGTCACCTAGTGCAG,8170 fluorescence intensity (a.u.)

# Exported with tabs: entries from further up
row	Sequence	binding signal
16	ATGTTCCGAACAACGTGTTGTGTATTTTTCCTGTGGTTTTCGGAGTCACCTAGTGCAG	9390 fluorescence intensity (a.u.)
17	CATCTTCCACTCAGTCACTCTCCGTCCTCTCCTGTCGACGCGGAGTCACCTAGTGCAG	11400 fluorescence intensity (a.u.)
18	GCTCGCCACACACCCCAAATCCTCCGCGCGGCCACGCCTACGGAGTCACCTAGTGCAG	8240 fluorescence intensity (a.u.)
19	CTCCTCCGGCCGCCTCCGCCTCCGCCTCCGCTCCCGCCTGCGGAGTCACCTAGTGCAG	10700 fluorescence intensity (a.u.)
20	TTCGGCACCACGATCCACCTCCGGGATTGCCGCCGCGCCACGGAGTCACCTAGTGCAG	8240 fluorescence intensity (a.u.)
